Source: the supplement of paper PMC10849652
The other results are listed elsewhere or left out.

Protein sequences, listed by entry. Tags and fused reporters are not part of them. Lines headed by an entry give the natural chain unless they say otherwise; changes in a name come on top.
UniProt Q9BZH6: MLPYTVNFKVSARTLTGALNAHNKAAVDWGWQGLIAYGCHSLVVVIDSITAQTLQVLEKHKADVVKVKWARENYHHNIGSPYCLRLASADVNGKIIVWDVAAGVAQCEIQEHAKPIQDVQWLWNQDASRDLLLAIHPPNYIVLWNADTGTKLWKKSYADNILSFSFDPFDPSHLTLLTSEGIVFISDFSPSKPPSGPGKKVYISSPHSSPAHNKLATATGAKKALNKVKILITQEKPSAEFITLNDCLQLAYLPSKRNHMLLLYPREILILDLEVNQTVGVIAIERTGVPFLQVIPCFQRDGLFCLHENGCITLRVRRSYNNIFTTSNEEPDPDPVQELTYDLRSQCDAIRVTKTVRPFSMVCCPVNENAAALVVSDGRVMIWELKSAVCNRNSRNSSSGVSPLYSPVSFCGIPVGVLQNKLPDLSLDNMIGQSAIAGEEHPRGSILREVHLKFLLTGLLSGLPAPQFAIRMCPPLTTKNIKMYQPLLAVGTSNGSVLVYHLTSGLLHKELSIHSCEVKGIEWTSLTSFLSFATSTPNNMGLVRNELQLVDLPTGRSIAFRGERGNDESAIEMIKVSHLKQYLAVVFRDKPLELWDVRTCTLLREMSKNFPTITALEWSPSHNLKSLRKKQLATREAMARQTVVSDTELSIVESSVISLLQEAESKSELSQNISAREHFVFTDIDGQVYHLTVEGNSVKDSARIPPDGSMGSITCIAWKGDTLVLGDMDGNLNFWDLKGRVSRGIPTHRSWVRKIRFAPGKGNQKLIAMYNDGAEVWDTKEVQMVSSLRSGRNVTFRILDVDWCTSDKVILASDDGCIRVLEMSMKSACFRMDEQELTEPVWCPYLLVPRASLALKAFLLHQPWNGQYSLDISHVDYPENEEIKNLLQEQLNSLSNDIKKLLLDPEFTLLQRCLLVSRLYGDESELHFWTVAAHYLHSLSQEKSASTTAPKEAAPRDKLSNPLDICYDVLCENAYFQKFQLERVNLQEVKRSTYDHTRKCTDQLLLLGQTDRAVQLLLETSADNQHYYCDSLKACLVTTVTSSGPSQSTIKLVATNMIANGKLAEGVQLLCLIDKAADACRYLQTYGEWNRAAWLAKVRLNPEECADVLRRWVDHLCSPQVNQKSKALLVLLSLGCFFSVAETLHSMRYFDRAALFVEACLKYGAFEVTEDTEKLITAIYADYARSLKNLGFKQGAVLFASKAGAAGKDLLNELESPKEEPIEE
UniProt Q5MNZ9: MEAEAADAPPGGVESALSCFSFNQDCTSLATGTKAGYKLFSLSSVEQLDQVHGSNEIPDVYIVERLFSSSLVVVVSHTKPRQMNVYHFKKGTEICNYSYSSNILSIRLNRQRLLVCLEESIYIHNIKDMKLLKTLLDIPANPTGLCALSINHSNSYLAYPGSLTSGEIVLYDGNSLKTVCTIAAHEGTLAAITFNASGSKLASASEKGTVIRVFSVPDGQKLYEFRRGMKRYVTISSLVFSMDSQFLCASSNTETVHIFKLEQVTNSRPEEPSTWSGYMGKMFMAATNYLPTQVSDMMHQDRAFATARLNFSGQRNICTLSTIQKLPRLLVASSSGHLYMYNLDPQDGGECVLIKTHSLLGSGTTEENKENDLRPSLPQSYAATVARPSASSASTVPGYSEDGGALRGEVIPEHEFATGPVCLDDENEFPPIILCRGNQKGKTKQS
UniProt P57081: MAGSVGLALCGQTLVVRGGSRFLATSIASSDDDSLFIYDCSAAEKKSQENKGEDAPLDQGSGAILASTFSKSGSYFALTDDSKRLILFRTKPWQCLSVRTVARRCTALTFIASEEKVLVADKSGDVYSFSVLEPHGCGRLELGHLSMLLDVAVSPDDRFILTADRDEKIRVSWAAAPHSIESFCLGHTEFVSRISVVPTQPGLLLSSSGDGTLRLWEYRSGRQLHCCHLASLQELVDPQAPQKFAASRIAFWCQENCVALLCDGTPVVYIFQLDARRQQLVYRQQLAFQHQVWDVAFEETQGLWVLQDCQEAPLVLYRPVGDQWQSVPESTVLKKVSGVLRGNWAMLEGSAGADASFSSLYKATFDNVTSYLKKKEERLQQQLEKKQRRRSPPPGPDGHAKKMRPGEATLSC
UniProt Q96EX3: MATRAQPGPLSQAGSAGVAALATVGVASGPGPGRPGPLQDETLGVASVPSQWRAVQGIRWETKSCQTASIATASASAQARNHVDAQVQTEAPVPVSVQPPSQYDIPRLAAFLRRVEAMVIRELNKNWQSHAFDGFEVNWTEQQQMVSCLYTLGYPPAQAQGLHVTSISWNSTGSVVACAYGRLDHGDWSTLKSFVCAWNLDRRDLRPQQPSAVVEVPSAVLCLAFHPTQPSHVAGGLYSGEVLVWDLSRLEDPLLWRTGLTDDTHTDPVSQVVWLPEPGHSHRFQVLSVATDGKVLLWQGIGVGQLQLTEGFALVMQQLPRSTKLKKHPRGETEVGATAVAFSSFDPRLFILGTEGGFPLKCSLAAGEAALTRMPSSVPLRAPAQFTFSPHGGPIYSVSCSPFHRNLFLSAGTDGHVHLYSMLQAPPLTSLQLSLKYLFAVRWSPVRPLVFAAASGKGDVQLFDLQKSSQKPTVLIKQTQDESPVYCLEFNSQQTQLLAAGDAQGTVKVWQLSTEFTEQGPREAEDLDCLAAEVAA
UniProt Q9HAD4: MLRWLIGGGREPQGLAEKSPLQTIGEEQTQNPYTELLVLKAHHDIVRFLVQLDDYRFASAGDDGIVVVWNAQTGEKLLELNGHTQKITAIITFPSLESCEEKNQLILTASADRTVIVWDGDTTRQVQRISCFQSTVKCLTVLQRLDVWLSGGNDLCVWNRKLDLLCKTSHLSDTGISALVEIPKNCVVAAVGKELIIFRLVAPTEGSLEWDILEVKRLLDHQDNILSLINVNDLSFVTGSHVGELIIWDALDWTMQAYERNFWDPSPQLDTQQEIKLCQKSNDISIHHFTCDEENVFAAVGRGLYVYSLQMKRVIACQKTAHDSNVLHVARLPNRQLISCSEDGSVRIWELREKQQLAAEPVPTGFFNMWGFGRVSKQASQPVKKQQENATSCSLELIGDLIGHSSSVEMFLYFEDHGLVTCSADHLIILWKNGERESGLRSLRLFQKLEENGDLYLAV
UniProt Q9UK41: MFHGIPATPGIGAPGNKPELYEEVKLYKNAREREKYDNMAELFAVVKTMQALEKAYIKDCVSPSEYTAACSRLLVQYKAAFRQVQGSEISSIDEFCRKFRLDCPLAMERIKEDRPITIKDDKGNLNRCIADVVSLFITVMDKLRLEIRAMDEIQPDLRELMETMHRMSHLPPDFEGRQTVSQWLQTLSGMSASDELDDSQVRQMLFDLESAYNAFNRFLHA
UniProt O75717: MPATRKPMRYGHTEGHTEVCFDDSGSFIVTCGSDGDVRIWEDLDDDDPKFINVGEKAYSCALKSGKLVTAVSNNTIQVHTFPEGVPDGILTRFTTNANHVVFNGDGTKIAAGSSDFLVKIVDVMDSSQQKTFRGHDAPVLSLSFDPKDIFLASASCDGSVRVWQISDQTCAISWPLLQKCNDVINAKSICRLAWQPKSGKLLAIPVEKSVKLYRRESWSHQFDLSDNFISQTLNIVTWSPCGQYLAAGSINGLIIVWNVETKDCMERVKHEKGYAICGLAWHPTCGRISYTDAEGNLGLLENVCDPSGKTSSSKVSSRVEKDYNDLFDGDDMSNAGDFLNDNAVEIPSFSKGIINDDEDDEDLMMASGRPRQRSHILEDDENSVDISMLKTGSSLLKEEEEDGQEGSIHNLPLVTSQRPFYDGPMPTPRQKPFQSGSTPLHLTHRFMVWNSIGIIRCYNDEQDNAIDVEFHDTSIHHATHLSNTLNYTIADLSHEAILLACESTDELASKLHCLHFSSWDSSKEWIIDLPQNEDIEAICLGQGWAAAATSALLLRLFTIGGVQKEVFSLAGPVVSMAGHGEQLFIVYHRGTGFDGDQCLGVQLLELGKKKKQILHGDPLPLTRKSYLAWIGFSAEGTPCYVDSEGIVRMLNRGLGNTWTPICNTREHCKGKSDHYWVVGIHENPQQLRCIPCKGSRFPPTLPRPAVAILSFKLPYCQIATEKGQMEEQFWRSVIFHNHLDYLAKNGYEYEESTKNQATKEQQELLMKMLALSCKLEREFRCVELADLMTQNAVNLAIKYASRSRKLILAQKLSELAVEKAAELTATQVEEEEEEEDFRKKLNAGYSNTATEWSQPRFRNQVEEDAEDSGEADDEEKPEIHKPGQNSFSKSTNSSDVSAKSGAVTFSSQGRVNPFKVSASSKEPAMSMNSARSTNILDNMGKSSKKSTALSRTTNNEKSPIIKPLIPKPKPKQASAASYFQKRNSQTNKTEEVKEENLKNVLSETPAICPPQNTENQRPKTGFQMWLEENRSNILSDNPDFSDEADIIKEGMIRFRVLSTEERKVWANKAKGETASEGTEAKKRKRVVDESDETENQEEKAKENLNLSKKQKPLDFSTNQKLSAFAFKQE
UniProt Q9H270: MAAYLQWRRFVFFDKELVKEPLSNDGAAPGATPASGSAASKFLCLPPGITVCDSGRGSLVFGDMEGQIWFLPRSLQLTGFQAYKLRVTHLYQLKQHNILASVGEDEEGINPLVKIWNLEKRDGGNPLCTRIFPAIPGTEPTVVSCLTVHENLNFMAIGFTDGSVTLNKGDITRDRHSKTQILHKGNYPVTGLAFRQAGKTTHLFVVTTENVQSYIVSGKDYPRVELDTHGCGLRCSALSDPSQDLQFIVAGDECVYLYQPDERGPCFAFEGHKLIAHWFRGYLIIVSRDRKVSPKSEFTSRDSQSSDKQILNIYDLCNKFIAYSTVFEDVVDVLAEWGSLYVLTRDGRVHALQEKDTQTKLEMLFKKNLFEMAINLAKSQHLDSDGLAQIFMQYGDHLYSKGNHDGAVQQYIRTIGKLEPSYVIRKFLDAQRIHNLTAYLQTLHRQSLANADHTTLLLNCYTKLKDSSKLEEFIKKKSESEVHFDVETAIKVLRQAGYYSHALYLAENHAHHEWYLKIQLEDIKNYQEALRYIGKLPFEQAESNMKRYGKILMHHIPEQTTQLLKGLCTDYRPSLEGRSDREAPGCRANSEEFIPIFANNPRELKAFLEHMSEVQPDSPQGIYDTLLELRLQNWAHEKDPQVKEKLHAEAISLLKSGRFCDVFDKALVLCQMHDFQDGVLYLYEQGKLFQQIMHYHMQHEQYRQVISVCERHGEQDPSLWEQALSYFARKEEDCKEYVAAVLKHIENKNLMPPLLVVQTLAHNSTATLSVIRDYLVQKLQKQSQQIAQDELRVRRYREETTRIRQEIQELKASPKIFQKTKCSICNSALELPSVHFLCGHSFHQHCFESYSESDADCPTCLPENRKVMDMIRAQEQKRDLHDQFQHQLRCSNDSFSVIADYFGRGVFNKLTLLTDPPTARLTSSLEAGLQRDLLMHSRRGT
UniProt Q7Z5K2: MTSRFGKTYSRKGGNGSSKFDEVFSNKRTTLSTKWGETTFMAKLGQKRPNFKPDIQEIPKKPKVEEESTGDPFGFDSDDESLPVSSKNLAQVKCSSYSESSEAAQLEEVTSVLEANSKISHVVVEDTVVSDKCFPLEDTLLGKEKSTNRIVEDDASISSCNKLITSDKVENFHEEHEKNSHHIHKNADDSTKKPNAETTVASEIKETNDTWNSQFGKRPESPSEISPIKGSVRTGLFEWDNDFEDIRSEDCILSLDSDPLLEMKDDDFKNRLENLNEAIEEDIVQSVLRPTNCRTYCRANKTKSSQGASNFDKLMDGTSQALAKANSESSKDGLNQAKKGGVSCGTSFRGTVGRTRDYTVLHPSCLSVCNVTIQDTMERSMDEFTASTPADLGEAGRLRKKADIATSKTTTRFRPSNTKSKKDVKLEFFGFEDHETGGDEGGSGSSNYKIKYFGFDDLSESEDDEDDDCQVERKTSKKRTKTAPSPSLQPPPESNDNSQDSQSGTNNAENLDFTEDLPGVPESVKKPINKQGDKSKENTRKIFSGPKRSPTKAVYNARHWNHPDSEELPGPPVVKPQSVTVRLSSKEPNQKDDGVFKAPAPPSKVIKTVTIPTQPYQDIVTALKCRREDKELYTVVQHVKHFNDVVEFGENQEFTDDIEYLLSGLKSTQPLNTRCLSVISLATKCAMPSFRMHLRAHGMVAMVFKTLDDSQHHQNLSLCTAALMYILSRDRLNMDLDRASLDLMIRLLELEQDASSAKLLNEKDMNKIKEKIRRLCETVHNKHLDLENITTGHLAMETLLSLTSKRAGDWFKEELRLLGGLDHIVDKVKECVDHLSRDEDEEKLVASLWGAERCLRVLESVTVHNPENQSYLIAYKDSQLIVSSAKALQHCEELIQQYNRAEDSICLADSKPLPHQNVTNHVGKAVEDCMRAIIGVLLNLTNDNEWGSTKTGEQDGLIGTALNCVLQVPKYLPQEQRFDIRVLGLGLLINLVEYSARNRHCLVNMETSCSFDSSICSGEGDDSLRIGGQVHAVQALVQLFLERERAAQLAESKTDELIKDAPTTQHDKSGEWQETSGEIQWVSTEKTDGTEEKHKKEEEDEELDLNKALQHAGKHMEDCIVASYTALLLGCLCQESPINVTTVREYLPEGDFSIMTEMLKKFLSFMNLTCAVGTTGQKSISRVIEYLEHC

Experiments:
Assay in all cases: log2 fold change, soluble protein after heating vs DMSO (PISA); higher = thermal stabilisation; K562 cells, 10 uM, 30 min; active = over 0.2 and 3.5 SD of the protein, either way, in both replicates (recomputed)
[1] = compound: CN1CCN(CCOc2cc(OC3CCOCC3)c3c(Nc4c(Cl)ccc5c4OCO5)ncnc3c2)CC1 [saracatinib]
Method in brief: (§1)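 K562 cells at 2×10^6 cells/mL were treated for 30 min with 10 μM compound, and aliquots were heated for 3 min over 48°C-58°C before pooling. Extraction used PBS with 0.5% NP-40 at 4°C, and soluble protein was the supernatant after 21,000xg for 90 min, measured by TMTpro 16plex LC-MS/MS with channel sums equalised. Thermal stability values, relative to control samples and from duplicates, are log2 fold changes.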

[2] = compound: CN1CCN(c2nc(C3=C(c4c[nH]c5ccccc45)C(=O)NC3=O)c3ccccc3n2)CC1 [sotrastaurin]
Method in brief: as §1

[3] = compound: CN1CCc2c(c3ccccc3n2Cc2ccc(C(=O)NO)cc2)C1 [Tubastatin A]
Method in brief: as §1

[4] = compound: CNC(=O)C1=CC=CC=C1NC2=NC(=NC=C2Cl)NC3=C(C=C(C=C3)N4CCOCC4)OC
Method in brief: as §1

[5] = compound: CNC(=O)c1ccc(Nc2ncc(C(F)(F)F)c(NCc3nccnc3N(C)S(C)(=O)=O)n2)cc1 [defactinib]
Method in brief: as §1

[6] = compound: CNCc1ccc(-c2[nH]c3cc(F)cc4c3c2CCNC4=O)cc1 [rucaparib]
Method in brief: as §1

[7] = compound: CNc1nc(-c2ccc3c(N)n[nH]c3c2)cc(N2C[C@@H](C(=O)NC3CCCCC3)CC[C@H]2C)n1
Method in brief: as §1

[8] = compound: COC(=O)N[C@@H](C)CNc1nccc(-c2cn(C(C)C)nc2-c2cc(Cl)cc(NS(C)(=O)=O)c2F)n1 [encorafenib]
Method in brief: as §1

[9] = compound: COC(=O)[C@H](CCSC)NC(=O)C1=C(C=C(C=C1)NC[C@H](CS)N)C2=CC=CC=C2
Method in brief: as §1

[10] = compound: COC1=CC=C(C=C1)CN2C=CC3=C2C=C(C=C3)C(=O)NO
Method in brief: as §1

[11] = compound: CON(C)C(=O)N1N=C(c2cc(F)ccc2F)S[C@@]1(CCCN)c1ccccc1 [filanesib]
Method in brief: as §1

[12] = compound: CO[C@H]1C[C@@H]2CC[C@@H](C)[C@@](O)(O2)C(=O)C(=O)N2CCCC[C@H]2C(=O)O[C@H]([C@H](C)C[C@@H]2CC[C@H](n3cnnn3)[C@H](OC)C2)CC(=O)[C@H](C)/C=C(\C)[C@@H](O)[C@@H](OC)C(=O)[C@H](C)C[C@H](C)/C=C/C=C/C=C/1C [zotarolimus]
Method in brief: as §1

[13] = compound: COc1cc(C(=O)O)ccc1NC(=O)[C@@H]1N[C@@H](CC(C)(C)C)[C@](C#N)(c2ccc(Cl)cc2F)[C@H]1c1cccc(Cl)c1F [idasanutlin]
Method in brief: as §1

[14] = compound: COc1cc(Nc2ncc3c(n2)-c2ccc(Cl)cc2C(c2c(F)cccc2OC)=NC3)ccc1C(=O)O [alisertib]
Method in brief: as §1

[15] = compound: COc1cc2nc(-c3cc(F)ccc3O)nc(N[C@@H]3CNC[C@H]3C(C)(C)O)c2cc1OC
Method in brief: as §1

[16] = compound: COc1cc2ncnc(Nc3ccc(F)c(Cl)c3)c2cc1OCCCN1CCOCC1 [gefitinib]
Method in brief: as §1

[17] = compound: COc1cccc2cc(-c3nc([C@H]4CC[C@H](C(=O)O)CC4)n4ncnc(N)c34)[nH]c12
Method in brief: as §1

[18] = compound: CS(=O)(=O)CCNCc1ccc(-c2ccc3ncnc(Nc4ccc(OCc5cccc(F)c5)c(Cl)c4)c3c2)o1 [lapatinib]
Method in brief: as §1

[19] = compound: CS(=O)(=O)N1CCN(Cc2cc3nc(-c4cccc5[nH]ncc45)nc(N4CCOCC4)c3s2)CC1 [pictilisib]
Method in brief: as §1

[20] = compound: CN1CC[C@H](c2c(O)cc(O)c3c(=O)cc(-c4ccccc4Cl)oc23)[C@H](O)C1 [alvocidib]
Method in brief: as §1

Measured: log2 fold change

WDR11 (UniProt Q9BZH6)
inactive: [1] -0.079 | [2] 0.059 | [3] -0.029 | [4] -0.021 | [5] 0.016 | [7] -0.052 | [8] -0.034 | [9] 0.017 | [10] -0.069 | [11] 0.027 | [12] -0.058 | [13] -0.124 | [14] -0.062 | [15] 0.104 | [16] -0.016 | [17] 0.094 | [18] -0.094 | [19] 0.094
active: [6] -0.382

WIPI1 (UniProt Q5MNZ9)
inactive: [1] 0.07 | [2] 0.011 | [20] -0.056 | [3] 0.012 | [4] -0.046 | [6] 0.029 | [7] 0.01 | [8] -0.02 | [10] -0.031 | [11] -0.054 | [12] -0.086 | [13] -0.096 | [14] 0.028 | [15] 0.006 | [16] 0.174 | [17] 0.002 | [18] -0.063 | [19] 0.01

VTA1 (UniProt Q9NP79)
inactive: [1] 0.028 | [2] -0.022 | [3] -0.046 | [4] 0.045 | [5] -0.029 | [6] 0.011 | [7] -0.011 | [8] 0.023 | [9] -0.033 | [10] -0.01 | [11] -0.033 | [12] 0.044 | [13] -0.094 | [14] -0.014 | [15] 0.056 | [16] -0.003 | [17] -0.008 | [18] -0.014 | [19] 0.006

WDR4 (UniProt P57081)
inactive: [1] 0.008 | [2] 0.071 | [3] 0.018 | [4] -0.022 | [5] -0.027 | [6] -0.079 | [7] 0.024 | [8] 0.041 | [9] -0.033 | [10] 0.017 | [11] -0.022 | [12] 0.004 | [13] -0.096 | [14] -0.059 | [15] -0.058 | [16] -0.01 | [17] 0.049 | [18] 0.206 | [19] 0.131

Two records drawn at random from the list so far:
WDR4 (UniProt P57081)
inactive: [1] 0.008 | [2] 0.071 | [3] 0.018 | [4] -0.022 | [5] -0.027 | [6] -0.079 | [7] 0.024 | [8] 0.041 | [9] -0.033 | [10] 0.017 | [11] -0.022 | [12] 0.004 | [13] -0.096 | [14] -0.059 | [15] -0.058 | [16] -0.01 | [17] 0.049 | [18] 0.206 | [19] 0.131

WDR11 (UniProt Q9BZH6)
inactive: [1] -0.079 | [2] 0.059 | [3] -0.029 | [4] -0.021 | [5] 0.016 | [7] -0.052 | [8] -0.034 | [9] 0.017 | [10] -0.069 | [11] 0.027 | [12] -0.058 | [13] -0.124 | [14] -0.062 | [15] 0.104 | [16] -0.016 | [17] 0.094 | [18] -0.094 | [19] 0.094
active: [6] -0.382

(next part)

VKORC1 (UniProt Q9BQB6)
inactive: [1] 0.002 | [2] -0.086 | [3] -0.052 | [4] 0.105 | [5] -0.038 | [6] -0.059 | [7] 0.026 | [8] 0.057 | [9] -0.023 | [10] 0.079 | [11] -0.077 | [12] 0.022 | [13] -0.089 | [14] 0.016 | [15] -0.019 | [16] -0.05 | [17] -0.144 | [18] -0.06 | [19] -0.021

WASHC2A (UniProt Q641Q2)
inactive: [1] 0.013 | [2] 0.001 | [3] 0.016 | [4] 0.015 | [5] 0.01 | [6] 0.045 | [7] -0.039 | [8] 0.019 | [9] 0.017 | [10] 0.007 | [11] 0.019 | [12] -0.053 | [13] 0.063 | [14] -0.065 | [15] -0.011 | [16] -0.009 | [17] -0.005 | [18] 0.02 | [19] 0.038

WDR34 (UniProt Q96EX3)
inactive: [1] 0.175 | [2] 0.022 | [20] -0.01 | [4] -0.027 | [5] -0.014 | [7] 0.021 | [9] 0.05 | [10] -0.126 | [11] 0.082 | [12] 0.039 | [13] -0.166 | [14] -0.402 | [15] 0.042 | [16] 0 | [17] -0.033 | [18] 0 | [19] -0.029

VTI1B (UniProt Q9UEU0)
inactive: [1] 0.041 | [2] 0.07 | [3] -0.046 | [4] -0.008 | [5] 0.005 | [6] 0.004 | [7] -0.091 | [8] 0 | [9] 0.046 | [10] -0.089 | [11] -0.027 | [12] -0.063 | [13] -0.026 | [14] 0.046 | [15] 0 | [16] -0.023 | [17] 0.137 | [18] 0.002 | [19] 0.061

WDR18 (UniProt Q9BV38)
inactive: [1] 0.057 | [2] -0.001 | [3] 0.008 | [4] -0.032 | [5] -0.051 | [6] -0.009 | [7] -0.038 | [8] 0.001 | [9] 0.003 | [10] -0.04 | [11] 0.02 | [12] -0.024 | [13] 0.039 | [14] -0.041 | [15] 0.056 | [16] 0.024 | [17] 0.035 | [18] 0.005 | [19] -0.004

VPS41 (UniProt P49754)
inactive: [1] -0.02 | [2] -0.077 | [3] 0.034 | [4] -0.055 | [5] -0.041 | [6] 0.023 | [7] -0.001 | [8] -0.011 | [9] 0.103 | [10] 0.004 | [11] -0.085 | [12] 0.015 | [13] -0.068 | [14] 0.038 | [15] -0.032 | [16] -0.002 | [17] -0.063 | [18] 0.008 | [19] -0.028

WDR41 (UniProt Q9HAD4)
inactive: [1] 0.071 | [2] -0.037 | [3] -0.054 | [4] -0.046 | [5] -0.007 | [6] 0.015 | [7] -0.031 | [8] 0.008 | [9] 0.036 | [10] 0.025 | [11] -0.154 | [12] -0.007 | [13] -0.031 | [14] -0.072 | [15] -0.254 | [16] -0.002 | [17] 0.014 | [18] 0.049 | [19] -0.056

VPS28 (UniProt Q9UK41)
inactive: [1] -0.101 | [2] -0.078 | [3] 0.072 | [4] 0.043 | [5] -0.172 | [6] -0.044 | [7] -0.046 | [8] 0.082 | [9] -0.033 | [10] -0.17 | [11] -0.061 | [12] 0.008 | [13] -0.076 | [14] 0.07 | [15] 0.038 | [16] 0.027 | [17] 0.033 | [18] 0.023 | [19] 0.059

WARS2 (UniProt Q9UGM6)
inactive: [1] -0.037 | [2] 0.014 | [3] -0.04 | [4] 0.018 | [5] -0.065 | [6] 0.04 | [7] 0.006 | [8] -0.011 | [9] -0.057 | [10] -0.072 | [11] -0.089 | [12] -0.034 | [13] 0.014 | [14] -0.025 | [15] 0.062 | [16] -0.035 | [17] 0 | [18] -0.127 | [19] 0.037

VPS33A (UniProt Q96AX1)
inactive: [1] -0.036 | [2] -0.174 | [3] 0.033 | [4] -0.043 | [5] -0.06 | [6] 0.045 | [7] -0.013 | [8] -0.003 | [9] -0.025 | [10] 0.018 | [11] -0.096 | [12] 0.033 | [13] -0.039 | [14] -0.037 | [15] 0.014 | [16] -0.033 | [17] -0.039 | [18] 0.015 | [19] -0.083

WDHD1 (UniProt O75717)
inactive: [1] -0.027 | [2] -0.067 | [3] 0.079 | [4] 0.075 | [5] -0.201 | [6] -0.06 | [7] 0 | [8] 0.119 | [9] -0.022 | [10] 0.013 | [11] -0.003 | [12] 0.031 | [13] 0.005 | [14] 0.036 | [15] 0.011 | [16] 0.013 | [17] -0.012 | [18] 0.006 | [19] -0.015

VPS11 (UniProt Q9H270)
inactive: [1] -0.003 | [2] -0.08 | [3] 0.004 | [4] -0.018 | [5] -0.066 | [6] 0.082 | [7] -0.021 | [8] 0.023 | [9] -0.01 | [10] -0.019 | [11] -0.038 | [12] 0.053 | [13] -0.063 | [14] -0.022 | [15] -0.032 | [16] -0.005 | [17] -0.041 | [18] -0.045 | [19] -0.013

WAPL isoform 3 (UniProt Q7Z5K2)
inactive: [1] 0.043 | [2] -0.144 | [3] 0.063 | [4] -0.008 | [5] -0.265 | [6] -0.066 | [7] -0.052 | [8] 0.212 | [9] -0.079 | [10] 0.052 | [11] -0.009 | [12] 0.128 | [13] -0.027 | [14] 0.038 | [15] -0.273 | [16] -0.006 | [17] -0.003 | [18] 0 | [19] 0.027
